PubChem BioAssay AID720505, Drosophila RNAi Screening Center | 2013

Test: 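Fly regulators or components of the CRAC channel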 (primary screen)
System: Drosophila S2R+ cells
Reagents: long dsRNA against Drosophila genes
Treatment: thapsigargin (2 µM) in calcium-free buffer to empty internal stores, then 2 mM calcium added back
Read-out: 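Fluo-4 signal in 384-well plates read on a FLIPR after thapsigargin (2 µM, calcium-free) store depletion and 2 mM calcium add-back; unnormalised mean endpoint per well; screen run twice, selected wells retested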
Direction: calcium signal: higher = more calcium entry after store depletion
Hit rule: 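About 1500 genes called as lowering calcium entry, by varying amounts, judged against per-plate control wells with STIM1 as positive and Rho1 as negative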
Meaning of the calls: active = called as lowering calcium entry; inactive = not called
The screen tested about 20,000 reagents; this is an unselected part of those with a known target gene and a result. In the full data, about 2,100 (10%) got an active call. 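Raw plate signals without normalisation; calls rest on control-based scores that were not deposited; replicate 2 separates called from uncalled poorly.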 Names joined by + are all predicted targets of the reagent. Not given: the amount of reagent, the time to read-out.

Coa7 (GeneID 3355158) [DRSC20967] gave calcium signal, replicate 1 = 206; calcium signal, replicate 2 = 99.1; inactive. Silencing of DAT (GeneID 36849) [DRSC07394] gave: calcium signal, replicate 1 = 175; calcium signal, replicate 2 = 187; inactive. Knock-down of CG18744 (GeneID 59140) [DRSC15381] came out at: calcium signal, replicate 1 = 158; calcium signal, replicate 2 = 174; inactive. With knock-down of CG30440 (GeneID 35496) [DRSC04775] the results were calcium signal, replicate 1 = 78.7; calcium signal, replicate 2 = 57.8; inactive. CG30440 (GeneID 35496) [DRSC04845] scored calcium signal, replicate 1 = 101; calcium signal, replicate 2 = 171; inactive. After knock-down of CG30440 (GeneID 35496) [DRSC04855], the record shows calcium signal, replicate 1 = 138; calcium signal, replicate 2 = 152; inactive.

bark (GeneID 33604) [DRSC00635] showed calcium signal, replicate 1 = 72.8; calcium signal, replicate 2 = 116; active. Knock-down of MED7 (GeneID 41288) [DRSC16059] resulted in: calcium signal, replicate 1 = 91.2; calcium signal, replicate 2 = 88.4; inactive. With knock-down of sun (GeneID 44046) [DRSC20140], the record shows calcium signal, replicate 1 = 90.8; calcium signal, replicate 2 = 115; inactive. Knock-down of mbc (GeneID 42817) [DRSC16995] gave: calcium signal, replicate 1 = 140; calcium signal, replicate 2 = 110; inactive. Against gny (GeneID 34409) [DRSC02810] the deposit lists calcium signal, replicate 1 = 98.5; calcium signal, replicate 2 = 108; inactive. For larp (GeneID 53567) [DRSC14728] the deposit lists calcium signal, replicate 1 = 156; calcium signal, replicate 2 = 169; inactive.

larp (GeneID 53567) [DRSC16984] scored calcium signal, replicate 1 = 162; calcium signal, replicate 2 = 165; inactive. After knock-down of larp (GeneID 53567) [DRSC21856], the screen gave calcium signal, replicate 1 = 79.3; calcium signal, replicate 2 = 134; inactive. For CG13228 (GeneID 36178) [DRSC06348], the values are calcium signal, replicate 1 = 70.2; calcium signal, replicate 2 = 112; inactive. Knock-down of CG42729 (GeneID 3885667) [DRSC10236] gave: calcium signal, replicate 1 = 69.5; calcium signal, replicate 2 = 84.2; active. l(3)psg2 (GeneID 38630) [DRSC10484] gave calcium signal, replicate 1 = 76.1; calcium signal, replicate 2 = 110; inactive. With knock-down of CG9411 (GeneID 32392) [DRSC20184], the record shows calcium signal, replicate 1 = 123; calcium signal, replicate 2 = 106; inactive.

With knock-down of CG4269 (GeneID 37578) [DRSC04457], the screen gave calcium signal, replicate 1 = 121; calcium signal, replicate 2 = 78.2; active. For nsl1 (GeneID 41911) [DRSC15625], the values are calcium signal, replicate 1 = 126; calcium signal, replicate 2 = 125; inactive. CG11889 + CG11891 [DRSC14426] scored calcium signal, replicate 1 = 217; calcium signal, replicate 2 = 136; inactive. Knock-down of CG11889 + CG11891 [DRSC14427] resulted in: calcium signal, replicate 1 = 228; calcium signal, replicate 2 = 146; inactive. Knock-down of Hsp60C (GeneID 33796) [DRSC03036] came out at: calcium signal, replicate 1 = 141; calcium signal, replicate 2 = 108; inactive. Nepl14 (GeneID 42700) [DRSC15631] showed calcium signal, replicate 1 = 168; calcium signal, replicate 2 = 199; inactive.

With knock-down of prg (GeneID 34177) [DRSC03324], the record shows calcium signal, replicate 1 = 179; calcium signal, replicate 2 = 162; inactive. With knock-down of CR18228 (GeneID 8674096) [DRSC15317], the screen gave calcium signal, replicate 1 = 68.7; calcium signal, replicate 2 = 160; active. Against CG14126 (retired record) (GeneID 39350) [DRSC10130] the deposit lists calcium signal, replicate 1 = 68.1; calcium signal, replicate 2 = 92.7; active. Depletion of Lsp2 (GeneID 45326) [DRSC09841] came out at: calcium signal, replicate 1 = 96.7; calcium signal, replicate 2 = 97.3; inactive. Depletion of Lsp2 (GeneID 45326) [DRSC11216] came out at: calcium signal, replicate 1 = 96.1; calcium signal, replicate 2 = 87.5; inactive.

Entries listed so far whose target name begins with M or m:
MED7 (GeneID 41288) [DRSC16059] | calcium signal, replicate 1: 91.2; calcium signal, replicate 2: 88.4; outcome: inactive
mbc (GeneID 42817) [DRSC16995] | calcium signal, replicate 1: 140; calcium signal, replicate 2: 110; outcome: inactive
